Assay results reported in the supplement of paper PMC12889115.
The list shows a part of the results. Values are raw readings; no control value is given beside them.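 First-pass screen: polymyxin B was added at a level that permeabilizes the Salmonella outer membrane while sparing the inner membrane. DMSO wells, with and without polymyxin B, defined maximum growth. Because plates differed from one another, each plate's data were ranked separately and the compounds with the lowest OD600 were carried forward as hits.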

Tested on: Salmonella enterica serovar Typhimurium SL1344
Assay: bacterial growth OD600 after 18 h with compound and polymyxin B; higher = more bacterial growth (less inhibition)
Conditions: 50 µM, Mueller-Hinton broth

| SMILES | bacterial growth OD600 (polymyxin B 0.75 µg/mL) | bacterial growth OD600 (polymyxin B 1 µg/mL) |
| --- | --- | --- |
| CCN1C(=O)CC(CC(=O)N(CC2CCC2)CC2CCCO2)(c2cccc(C(F)(F)F)c2)C1=O (stereo unspecified) | 0.002 | – |
| CCN(Cc1nccn1C)C(=O)c1ccc(NCc2ccccc2C)nc1 | – | 0.822 |
| COc1ccc2cc(C(=O)C3CCCN(Cc4cccc(C)n4)C3)ccc2c1 (stereo unspecified) | – | 0.765 |
| CCC1CN(CCNC(=O)Cn2ncc3ccccc32)Cc2cc(OC)ccc2O1 (stereo unspecified) | 0.957 | – |
| COc1ccccc1-c1ccnc(-n2ncc(C(=O)N3CCN(C/C=C/c4ccccc4)CC3)c2C)n1 | 0.757 | – |
| Cc1ncc2c(c1CNC(=O)/C=C/c1ccccc1F)CCN(C(=O)c1coc3c1C(=O)CCC3)C2 | 0.809 | – |
| CC(C)CCC(=O)N1CCC(C2(c3ccccn3)NC(=O)N(CCc3cccs3)C2=O)CC1 (stereo unspecified) | 0.883 | – |
| O=C(NCc1c[nH]nc1-c1ccc(F)cc1)C1CCC(=O)N(Cc2ccccn2)C1 (stereo unspecified) | – | 0.776 |
| CN(C)c1cc(N2C[C@H]3OC(=O)N(CCc4cccc(Cl)c4)[C@H]3C2)ncn1 | – | 1.06 |
| CC(=O)c1cccc(OCc2cc(C(=O)N(C)Cc3cc(C)no3)n[nH]2)c1 | – | 0.819 |
| Cc1ccc(F)c(CNC2CCN(c3ccc(C(=O)NCc4ccc5c(c4)OCO5)cc3)CC2)c1F | 0.333 | – |
| COCC1CCN(c2ccc(C(=O)N3CCCC(COC)C3)cn2)CC1 (stereo unspecified) | – | 0.892 |
| Cc1ccc2c(c1)CN(CC(=O)N1CCC(N3CCOCC3)CC1)CC(c1ccsc1)O2 (stereo unspecified) | 0.774 | – |
| COc1ccccc1Oc1ncccc1CNC(=O)[C@@H]1CCC(=O)N1 | 0.956 | – |
| CCOc1ccccc1CN1CCC(CO)(CCOc2ccccc2)CC1 | – | 0.753 |
| O=C(NCC1(O)CCCCC1)c1cc(COc2ccccc2F)[nH]n1 | – | 1.04 |

| SMILES | bacterial growth OD600 (polymyxin B 0.75 µg/mL) | bacterial growth OD600 (polymyxin B 1 µg/mL) |
| --- | --- | --- |
| CC1(C)CC(C(=O)N2CCOc3ccc(CN4CCN(c5ccc(F)cc5)CC4)cc3C2)CCO1 (stereo unspecified) | 0.848 | – |
| COc1cccc(C(=O)NCC2CCCN(Cc3cccc4nonc34)C2)c1OC (stereo unspecified) | – | 0.654 |
| CCn1ccnc1CN(C)C(=O)c1cc(Cn2ccc3ccccc32)[nH]n1 | 0.815 | – |
| O=C(CC(c1ccccc1)c1ccccc1Cl)NCCN1CCCCC1=O (stereo unspecified) | – | 0.911 |
| O=C1CCC(C(=O)N2CCCCO2)CN1CCN1CCOCC1 (stereo unspecified) | – | 0.867 |
| COc1ccc(C(CC(=O)N2CCSCC2)c2ccccc2)cc1 (stereo unspecified) | – | 0.678 |
| Cn1cc(CNC(=O)c2coc(COc3cccc(C(F)(F)F)c3)n2)cn1 | – | 0.958 |
| CO[C@H]1[C@H](NC(=O)C(C)C)c2ccccc2C12CCN(Cc1c[nH]nc1-c1cc(C)ccc1C)CC2 | 0.847 | – |
| Cn1cc(CCC(=O)N2CCc3[nH]nc(-c4ccc(Cl)cc4)c3C2)cn1 | 0.915 | – |
| CC(C)c1nc(CNC(=O)c2ccc(N(C)Cc3ccccc3)nc2)no1 | – | 0.837 |
| CCOC(=O)N1CCC(NC(=O)C2CC23CCN(C(=O)C(c2ccccc2)C2CCCC2)CC3)CC1 (stereo unspecified) | 0.012 | – |
| Cc1nc(CNC2CCN(c3nc(C)c4cc(F)ccc4n3)CC2)nc2c1CCCC2 | 0.013 | – |
| OCCOc1ccccc1CN1CCCC(Nc2ccc(F)cc2)C1 (stereo unspecified) | – | 0.777 |
| O=C(C[n+]1cc([O-])on1)NCc1cccnc1Oc1ccccc1 | – | 0.96 |
| Cc1cccc(CNC(=O)c2ccc(OC3CCN(S(C)(=O)=O)CC3)c(Cl)c2)n1 | – | 0.965 |

2 of these compounds, set out differently.
SMILES | bacterial growth OD600 (polymyxin B 0.75 µg/mL) | bacterial growth OD600 (polymyxin B 1 µg/mL)
CC1(C)CC(C(=O)N2CCOc3ccc(CN4CCN(c5ccc(F)cc5)CC4)cc3C2)CCO1 (stereo unspecified) | 0.848 | –
COc1cccc(C(=O)NCC2CCCN(Cc3cccc4nonc34)C2)c1OC (stereo unspecified) | – | 0.654
